# Measurements reported in PubChem BioAssay AID743255 (National Center for Advancing Translational Sciences (NCATS), 2014).
# Chains of the proteins cited; added tags and fusions are not shown. Lines headed by an entry give the natural chain unless they say otherwise; changes in a name come on top.
# UniProt O94782: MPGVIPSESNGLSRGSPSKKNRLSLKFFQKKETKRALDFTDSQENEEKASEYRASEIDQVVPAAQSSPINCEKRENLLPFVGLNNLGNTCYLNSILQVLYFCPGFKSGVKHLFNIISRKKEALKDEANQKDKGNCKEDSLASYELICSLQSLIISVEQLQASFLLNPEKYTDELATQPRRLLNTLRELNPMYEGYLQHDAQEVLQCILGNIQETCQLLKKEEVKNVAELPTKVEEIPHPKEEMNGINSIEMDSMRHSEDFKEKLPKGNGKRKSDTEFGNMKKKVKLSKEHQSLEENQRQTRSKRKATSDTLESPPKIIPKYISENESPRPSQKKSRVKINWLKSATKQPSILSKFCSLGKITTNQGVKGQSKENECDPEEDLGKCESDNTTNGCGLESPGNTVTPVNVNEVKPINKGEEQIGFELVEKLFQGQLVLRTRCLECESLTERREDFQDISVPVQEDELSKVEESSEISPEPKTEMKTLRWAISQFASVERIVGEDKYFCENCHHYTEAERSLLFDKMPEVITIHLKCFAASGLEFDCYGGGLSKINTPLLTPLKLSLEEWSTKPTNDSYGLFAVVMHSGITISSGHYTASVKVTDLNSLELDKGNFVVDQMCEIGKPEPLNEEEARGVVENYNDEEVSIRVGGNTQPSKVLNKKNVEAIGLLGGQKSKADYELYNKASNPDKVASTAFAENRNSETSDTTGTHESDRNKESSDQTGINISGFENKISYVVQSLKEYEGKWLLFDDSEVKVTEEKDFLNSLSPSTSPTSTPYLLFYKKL
# “And” between values parts separate entries of the source, which are not always exact repeats. Identical values can stand only once. Hit rate of the full screen: of about 390,000 compounds, about 910 (0.23%) were called active. This list was built around the results that the source calls inconclusive (neither active nor inactive); the mix of calls is not that of the screen. Calls follow the shape of the dose curve; as a rule, active = well fitted inhibition curve with a large enough effect; inconclusive = small, poorly fitted or top-dose-only effect; inactive = no such curve, though single readings can be large or run the other way. Potencies of inconclusive entries are doubtful fits and often do not repeat.
# Biological target: Ubiquitin carboxyl-terminal hydrolase 1 (Homo sapiens) (UniProt O94782)
# Test: Inhibitors of USP1/UAF1: Primary Screen; also: nearly all actives have a fitted effect of over 60% in size
# Settings: recombinant USP1/UAF1, Ub-Rhodamine cleavage fluorescence; activity change, negative = inhibition: at 57.1 µM (top of the series)
# How it was run: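 USP1/UAF1 complex at 1 nM was preincubated with compound for 15 min at room temperature, then Ub-Rho substrate (150nM final) was added. Fluorescence (480/540 nm) was read kinetically, 6 reads every 60 seconds.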
# % is scaled to controls: 0 for no effect and ±100 for the full control effect; potency is read from the fitted curve at half-maximal effect.
SMILES,Potency,"activity change, negative = inhibition"
COc1cccc(-n2c(/C=C/c3cccc(C)c3)nc3ccccc3c2=O)c1,"inconclusive: 0.794 µM [inhibitor, full curve, poor fit]",–
CCC(=O)Nc1ccc(Cl)c(Cl)c1,"inconclusive: 28.2 µM [inhibitor, single point]",–
CN(C)c1ccc(/C=C/[N+](=O)[O-])cc1,–,inactive: -26.4%
Cc1ccc(OP(=O)(NC(C)c2ccccc2)Oc2ccc(C)cc2)cc1 (stereo not given),–,inactive: -25.2%
CCOC(=O)c1[nH]c(=O)c2ccccc2c1O,"inconclusive: 28.2 µM [inhibitor, partial curve]",–
CNS(=O)(=O)c1ccc(-c2ccc(C=C3C(=O)NC(=O)NC3=O)o2)cc1,"inconclusive: 11.2 µM [inhibitor, partial curve, poor fit]",–
O=Nc1c(-c2ccccc2)n(O)[n+]([O-])c1-c1ccccc1,"inconclusive: 1.58 µM [inhibitor, full curve, poor fit]",–
CCOC(=O)C1(CCOc2ccccc2)CCN(Cc2cccc(O)c2)CC1,–,inactive: -20.8%
O=c1[nH]c(=O)n(-c2cccc(F)c2)c(O)c1/C=C1\C=Nc2ccccc21,"inconclusive: 35.5 µM [inhibitor, partial curve, poor fit]",–
COC(=O)C1=C(c2cccc(OC)c2OC)C[C@@H]2CC[C@H]1N2C(=O)NCc1cccc2ccccc12,"inconclusive: 39.8 µM [inhibitor, partial curve, poor fit]",–
C[C@]12CC[C@H]3[C@@H](CCC4=CC(=O)CC[C@@]43C)[C@@H]1CC[C@@H]2C(=O)CO,"inconclusive: 44.7 µM [inhibitor, partial curve]",–
COC1C(C)OC(OC2CC(C)(O)Cc3cc4c(c(O)c32)C(=O)c2c(O)cc3c(c2C4=O)OC2OC3(C)C(O)C(N(C)C)C2O)C(OC)C1(C)OC (stereo not given),"inconclusive: 2.82 µM [inhibitor, full curve, poor fit]",–
CN1C(=O)c2ccccc2Sc2ccc(NC(=O)NCc3ccc(Cl)cc3)cc21,"inconclusive: 44.7 µM [inhibitor, partial curve]",–
COc1cc(C)cc(CN2CC=C(c3ccccc3)CC2)c1O,"inconclusive: 44.7 µM [inhibitor, partial curve, poor fit]",–
CCOP(=O)(C1=C(O)C(=O)C(C(C)(C)C)=CC1=O)c1ccccc1 (stereo not given),"inconclusive: 35.5 µM [inhibitor, partial curve, poor fit]",–
COCCNC(=O)c1c(N)n(CCC(C)C)c2nc3ccccc3nc12,"inconclusive: 25.1 µM [inhibitor, single point]",–
CCCCC1(CC)COP(=O)(OCC(Cl)(Cl)Cl)OC1 (stereo not given),"inconclusive: 0.282 µM [inhibitor, full curve, poor fit]",–
CCCCCC1(C(C)C)C(=O)NC(=S)NC1=O,–,inactive: -14%
Cc1ccc(CN2CCN(CC(=O)N3CCC4(CC3)OCCO4)C2=O)cc1,–,inactive: -18.9%
CCOC(=O)C1(CCc2ccccc2)CCN(Cc2cccc3cnccc23)CC1,"inconclusive: 0.282 µM [inhibitor, partial curve, poor fit]",–
O=C(CN1CCOCC1)Nc1ccc(Br)cc1C(=O)c1ccccc1,"inconclusive: 28.2 µM [inhibitor, single point]",–
CCCCN1C(=O)/C(=C/C=C/c2ccco2)C(=O)NC1=S,"inconclusive: 7.94 µM [inhibitor, partial curve]",–

SMILES,Potency,"activity change, negative = inhibition"
Cc1cc(C(C#N)c2ccc(Cl)cc2)c(Cl)cc1NC(=O)c1cc(I)cc(I)c1O (stereo not given),"inconclusive: 50.1 µM [inhibitor, partial curve, poor fit]",–
COc1ccc2c(c1OC)C(=O)O[C@@H]2[C@H]1c2cc3c(cc2CCN1C)OCO3,"inconclusive: 0.251 µM [inhibitor, full curve]",–
Cc1ccc(N/N=C/c2c(O)n(-c3ccccc3)c(=O)[nH]c2=O)cc1,–,inactive: -12.5%
CCCCOCCCn1c(N)c(C(=O)OC(C)COC)c2nc3ccccc3nc21 (stereo not given),–,inactive: -19.7%
Cc1ccc(-n2c(/C=C/c3cccc(C(F)(F)F)c3)nc3ccccc3c2=O)cc1,–,inactive: -2.31%
CN1/C(=C\C=Nc2ccccc2)C(C)(C)c2ccccc21,–,inactive: -0.435%
CCSc1nnc(NC(=O)c2cccn(Cc3ccc(Cl)cc3)c2=O)s1,–,inactive: -17%
O=C(COc1ccc(Cl)cc1)N1CCN(C2CCCC2)CC1,"inconclusive: 31.6 µM [inhibitor, partial curve, poor fit]",–
O=C(c1cn(Cc2ccccc2)c2ccccc12)C1CC1,–,inactive: -13.8%
Cc1cccc(N=Cc2c(O)n(-c3ccccc3C)c(=O)[nH]c2=O)c1,–,inactive: -15%
CCN1C(=O)C(=C/C=C/c2ccco2)C(=O)N(CC)C1=S,"inconclusive: 3.98 µM [inhibitor, full curve]",–
CCn1ncc(-c2ccnc3cc(C(=O)O)nn23)c1C,"inconclusive: 39.8 µM [inhibitor, partial curve]",–
COc1cc(C(=S)N2CCOCC2)cc(OC)c1OC(=O)Cc1ccccc1,–,inactive: -25.8%
CCCc1nc(SC)ncc1C(=O)Nc1ccc(Cl)cc1C(=O)c1ccccc1,–,inactive: -15.4%
COC(=O)C(O)(c1c(C)[nH]n(-c2ccccc2)c1=O)C(F)(F)F (stereo not given),"inconclusive: 31.6 µM [inhibitor, partial curve]",–
CN1CCC2(CC1)C(C#N)=C(N)NC(S)=C2C#N,"inconclusive: 35.5 µM [inhibitor, partial curve] and inconclusive: 31.6 µM [inhibitor, partial curve]",–
CN(C)C(=O)Oc1ccc(OCc2nc3ccccc3[nH]2)cc1,–,inactive: 0.207%
COC(=O)C1=C(c2cccc(C#N)c2)C[C@@H]2CC[C@H]1N2C(=O)NCCOc1ccc(OC)cc1,"inconclusive: 7.94 µM [inhibitor, partial curve]",–
CC(=O)c1ccc2c(c1)C1C(Cl)C(Sc3ccccc3[N+](=O)[O-])CC1C(C(=O)O)N2 (stereo not given),–,inactive: -22.9%
O=P(N1CC1)(N1CC1)N1CCc2ccccc21,–,inactive: -10.7%
CCOc1cccc(OCC)c2c(C)[n+](CC3CCCO3)c(C)c1-2 (stereo not given),"inconclusive: 39.8 µM [inhibitor, partial curve]",–
O=C(N/N=C/c1c(O)n(-c2ccccc2)c(=S)[nH]c1=O)c1ccccc1,–,inactive: 0.908%

SMILES,Potency,"activity change, negative = inhibition"
CC[C@H](C)/C=C(C)/C=C/C1=CC2=C(Cl)C(=O)[C@](C)(OC(C)=O)C(=O)C2=CO1,active: 25.1 µM,–
CCCNC(=O)c1c(N)n(Cc2ccco2)c2nc3ccccc3nc12,"inconclusive: 17.8 µM [inhibitor, partial curve]",–
COc1ccccc1OP(=O)(Nc1ccc(Br)cc1)Oc1ccccc1OC,"inconclusive: 39.8 µM [inhibitor, partial curve]",–
CC[C@@H](CO)NC(=O)[C@@H]1C=C2c3cccc4c3c(cn4C)C[C@H]2N(C)C1,"inconclusive: 28.2 µM [inhibitor, single point] and inconclusive: 39.8 µM [inhibitor, partial curve]",–
COc1ccccc1N1C(=O)NC(=O)/C(=C/c2ccc([N+](=O)[O-])s2)C1=O,active: 31.6 µM,–
COC(=O)C1=C(c2ccccc2)C[C@@H]2CC[C@H]1N2C(=O)NCc1ccc(C(F)(F)F)cc1,"inconclusive: 7.94 µM [inhibitor, partial curve, poor fit]",–
C/C(=N\NC(=O)c1ccccc1)c1c(O)n(C2CCCCC2)c(=O)[nH]c1=O,–,inactive: -26.3%
O=C(O)c1ccc2c(c1)C1C(Cl)C(Sc3ccccc3[N+](=O)[O-])CC1C(c1cccc([N+](=O)[O-])c1)N2 (stereo not given),"inconclusive: 44.7 µM [inhibitor, partial curve, poor fit]",–
CCOc1ccc(NC(=O)c2c(O)[nH]c(=O)[nH]c2=O)cc1,"inconclusive: 1.12 µM [inhibitor, full curve, poor fit]",–
Cc1oc2cc3oc(=O)c(CCC(=O)N4CCCCC4)c(C)c3cc2c1C,"inconclusive: 0.794 µM [inhibitor, full curve, poor fit]",–
Cc1ccccc1OCC(=O)Nc1ccccc1C(=O)OCc1cc(=O)n2nc(C3CC3)sc2n1,"inconclusive: 5.01 µM [inhibitor, partial curve]",–
COC(=O)C1=C(c2ccc(OC)c(OC)c2)C[C@@H]2CC[C@H]1N2C(=O)NCCc1ccccc1,"inconclusive: 7.94 µM [inhibitor, partial curve]",–
CSc1ncc(Br)c(N2CC2)n1,"inconclusive: 35.5 µM [inhibitor, partial curve, poor fit]",–
CN1CC(C(=O)c2ccc(Cl)cc2)C(c2ccc(Cl)cc2Cl)C1 (stereo not given),–,inactive: -20.2%
Cc1ccc(N2C(=O)NC(=O)/C(=C\c3cc(C)n(-c4sc5c(c4C#N)CCCC5)c3C)C2=O)cc1,active: 28.2 µM,–
Oc1ccc2c3c1O[C@H]1[C@@H](O)CC[C@@]4(O)[C@@H](C2)N(CC2CCC2)CC[C@]314,"inconclusive: 31.6 µM [inhibitor, single point]",–
CC12CCC(=O)C=C1CCC1C2CCC2(C)C1CCC2(O)CC#N (stereo not given),–,inactive: -1.38%
C=COCCn1c(C)c(C(C)=O)c2cc(O)ccc21,"inconclusive: 10 µM [inhibitor, single point]",–
Cc1cccc(-n2c(/C=C\c3cccc(Br)c3)nc3ccccc3c2=O)c1,"inconclusive: 31.6 µM [inhibitor, partial curve]",–
CC1CCN(C(CC(=O)c2ccccc2)C(=O)c2ccccc2)CC1 (stereo not given),"inconclusive: 39.8 µM [inhibitor, partial curve, poor fit]",–
Cc1ccc(Cn2cc(C=O)c3ccccc32)cc1,"inconclusive: 44.7 µM [inhibitor, partial curve, poor fit]",–
